Record: PubChem BioAssay AID1224830 (NIAID, 2016)
In all, the deposit lists about 18,000 reagents; this is a part drawn at random. About 2,900 of all reagents (16%) count as active. 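Calls are made per well; low scores hint the gene aids the LPS response, high scores that it dampens it.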 Repeated entries: four replicate wells of each siRNA pool.

Aim: 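Regulators of TLR4 signalling towards TNF-alpha in macrophage-like cells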 (primary screen)
Cell system: human THP-1 monocytic leukaemia cells, TNF dual-luciferase reporter clone, PMA-differentiated to macrophage-like cells
Reagents: siRNA pool against human genes, 50 nM
Timing: LPS for 4 h, given about 3 days after siRNA transfection
Conditions: bacterial LPS (TLR4 ligand), 10 ng/ml
Measured: 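TNF firefly reporter luminescence divided by renilla, normalised to the plate median, then turned into a robust z-score for each replicate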
Scale: TNF reporter robust z-score: higher = stronger TNF reporter response to LPS
Active means: 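a well is active when its z-score exceeds 2.8 or falls below -1.5; control wells carry no call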

TRIM37 (GeneID 4591) — TNF reporter robust z-score: -0.93; outcome: inactive
TRIM37 (GeneID 4591) — TNF reporter robust z-score: -1.71; outcome: active
TRIM37 (GeneID 4591) — TNF reporter robust z-score: -0.65; outcome: inactive
TRIM37 (GeneID 4591) — TNF reporter robust z-score: -0.88; outcome: inactive
NEUROG1 (GeneID 4762) — TNF reporter robust z-score: 0.56; outcome: inactive
NEUROG1 (GeneID 4762) — TNF reporter robust z-score: -0.06; outcome: inactive
NEUROG1 (GeneID 4762) — TNF reporter robust z-score: 0.7; outcome: inactive
NEUROG1 (GeneID 4762) — TNF reporter robust z-score: -0.52; outcome: inactive
PLAAT3 (GeneID 11145) — TNF reporter robust z-score: 1.82; outcome: inactive
PLAAT3 (GeneID 11145) — TNF reporter robust z-score: 2.37; outcome: inactive
PLAAT3 (GeneID 11145) — TNF reporter robust z-score: 3; outcome: active
PLAAT3 (GeneID 11145) — TNF reporter robust z-score: 3.51; outcome: active
NCAM1 (GeneID 4684) — TNF reporter robust z-score: -1.68; outcome: active
NCAM1 (GeneID 4684) — TNF reporter robust z-score: -1.14; outcome: inactive
NCAM1 (GeneID 4684) — TNF reporter robust z-score: -1.54; outcome: active
NCAM1 (GeneID 4684) — TNF reporter robust z-score: -1.3; outcome: inactive
SFRP2 (GeneID 6423) — TNF reporter robust z-score: 0.18; outcome: inactive
SFRP2 (GeneID 6423) — TNF reporter robust z-score: 0.6; outcome: inactive
SFRP2 (GeneID 6423) — TNF reporter robust z-score: 0.31; outcome: inactive
SFRP2 (GeneID 6423) — TNF reporter robust z-score: -0.09; outcome: inactive

2 entries from above, reformatted.
gene knocked down,TNF reporter robust z-score,outcome
NCAM1 (GeneID 4684),-1.3,inactive
SFRP2 (GeneID 6423),0.18,inactive
